According to patent US20210198672A1, “APTAMER FOR SCLEROSTIN AND USE THEREOF” (APTACURE THERAPEUTICS LIMITED, published 2021):
A weaker result is weaker than the reference pair of the same experiment. Tags and fusion partners may be left off the protein sequences shown.

Target: T1, sclerostin (SOST) (Homo sapiens) (UniProt Q9BQB4)
T1 sequence: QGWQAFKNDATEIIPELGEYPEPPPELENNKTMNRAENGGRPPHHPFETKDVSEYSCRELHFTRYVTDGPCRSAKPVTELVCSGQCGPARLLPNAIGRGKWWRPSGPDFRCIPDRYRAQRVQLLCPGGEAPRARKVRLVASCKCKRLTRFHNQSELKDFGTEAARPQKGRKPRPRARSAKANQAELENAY
Experiment: ELONA
Conditions: low binding, curve could not be fitted; purified recombinant protein; label: biotin (binding assay); single-stranded DNA; variant of aptscl 3

## TGTTGTACATCGCCTTACGCACGTG [aptscl 3-6]
  binding result: binds more weakly
